# This is one part of the list. Small differences around the control level are noise.
# Sequences of proteins named here, by UniProt entry; tags and fusion partners are left off. A change or cut given only in a name is not applied to a line headed by its entry.
# UniProt Q8NDX5: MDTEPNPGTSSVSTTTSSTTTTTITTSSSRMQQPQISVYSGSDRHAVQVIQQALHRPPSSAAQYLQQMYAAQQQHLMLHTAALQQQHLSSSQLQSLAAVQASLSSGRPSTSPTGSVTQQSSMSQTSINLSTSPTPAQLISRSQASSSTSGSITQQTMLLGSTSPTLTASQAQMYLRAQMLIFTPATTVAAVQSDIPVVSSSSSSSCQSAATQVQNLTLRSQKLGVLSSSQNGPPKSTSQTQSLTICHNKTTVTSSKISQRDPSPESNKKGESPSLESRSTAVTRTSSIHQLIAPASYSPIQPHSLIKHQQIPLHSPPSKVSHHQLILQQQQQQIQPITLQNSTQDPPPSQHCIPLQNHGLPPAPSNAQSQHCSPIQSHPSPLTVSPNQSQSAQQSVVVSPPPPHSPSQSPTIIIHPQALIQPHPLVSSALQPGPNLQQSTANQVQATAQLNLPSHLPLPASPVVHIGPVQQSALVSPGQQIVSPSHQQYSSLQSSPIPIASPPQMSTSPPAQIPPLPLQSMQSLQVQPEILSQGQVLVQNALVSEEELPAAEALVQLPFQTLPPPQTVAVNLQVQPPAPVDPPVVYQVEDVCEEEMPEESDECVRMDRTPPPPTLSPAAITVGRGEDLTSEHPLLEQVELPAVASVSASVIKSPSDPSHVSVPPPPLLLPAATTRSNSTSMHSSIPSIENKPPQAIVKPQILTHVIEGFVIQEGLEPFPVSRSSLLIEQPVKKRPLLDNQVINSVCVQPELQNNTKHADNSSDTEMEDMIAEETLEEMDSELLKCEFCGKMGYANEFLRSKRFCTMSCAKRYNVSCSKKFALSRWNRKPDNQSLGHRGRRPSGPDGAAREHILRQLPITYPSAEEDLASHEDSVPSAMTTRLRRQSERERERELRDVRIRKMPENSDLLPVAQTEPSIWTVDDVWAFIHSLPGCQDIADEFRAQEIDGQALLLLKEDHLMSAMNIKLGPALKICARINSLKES
# UniProt Q8NI37: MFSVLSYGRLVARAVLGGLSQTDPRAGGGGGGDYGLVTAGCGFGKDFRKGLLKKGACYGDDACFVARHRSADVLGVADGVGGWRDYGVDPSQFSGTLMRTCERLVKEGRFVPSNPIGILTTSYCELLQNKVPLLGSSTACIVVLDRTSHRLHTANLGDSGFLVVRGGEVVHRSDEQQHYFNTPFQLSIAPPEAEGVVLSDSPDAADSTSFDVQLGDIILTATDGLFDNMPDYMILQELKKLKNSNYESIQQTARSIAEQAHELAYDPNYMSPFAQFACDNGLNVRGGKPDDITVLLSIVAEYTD
# UniProt Q8NEF9: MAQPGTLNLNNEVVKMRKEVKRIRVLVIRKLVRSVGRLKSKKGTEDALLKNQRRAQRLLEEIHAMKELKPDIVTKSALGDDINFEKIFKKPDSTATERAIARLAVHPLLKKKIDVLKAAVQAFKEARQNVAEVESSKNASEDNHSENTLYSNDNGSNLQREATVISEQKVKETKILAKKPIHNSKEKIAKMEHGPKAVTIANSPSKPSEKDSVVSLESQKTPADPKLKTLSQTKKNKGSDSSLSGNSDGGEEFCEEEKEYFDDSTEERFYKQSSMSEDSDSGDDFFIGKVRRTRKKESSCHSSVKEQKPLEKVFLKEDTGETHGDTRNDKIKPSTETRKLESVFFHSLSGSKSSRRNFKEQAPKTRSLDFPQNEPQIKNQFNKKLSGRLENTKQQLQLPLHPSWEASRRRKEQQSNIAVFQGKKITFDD
# UniProt Q8N7N1: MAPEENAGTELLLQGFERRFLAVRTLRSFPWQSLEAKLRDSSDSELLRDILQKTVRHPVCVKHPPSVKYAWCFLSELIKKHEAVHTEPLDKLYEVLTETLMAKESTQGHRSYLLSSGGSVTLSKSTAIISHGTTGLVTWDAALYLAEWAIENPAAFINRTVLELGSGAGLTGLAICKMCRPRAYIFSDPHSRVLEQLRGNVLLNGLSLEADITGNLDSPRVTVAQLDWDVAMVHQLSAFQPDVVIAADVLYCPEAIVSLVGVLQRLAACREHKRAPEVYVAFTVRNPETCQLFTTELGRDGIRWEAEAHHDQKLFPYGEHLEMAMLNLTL
# UniProt Q8N392: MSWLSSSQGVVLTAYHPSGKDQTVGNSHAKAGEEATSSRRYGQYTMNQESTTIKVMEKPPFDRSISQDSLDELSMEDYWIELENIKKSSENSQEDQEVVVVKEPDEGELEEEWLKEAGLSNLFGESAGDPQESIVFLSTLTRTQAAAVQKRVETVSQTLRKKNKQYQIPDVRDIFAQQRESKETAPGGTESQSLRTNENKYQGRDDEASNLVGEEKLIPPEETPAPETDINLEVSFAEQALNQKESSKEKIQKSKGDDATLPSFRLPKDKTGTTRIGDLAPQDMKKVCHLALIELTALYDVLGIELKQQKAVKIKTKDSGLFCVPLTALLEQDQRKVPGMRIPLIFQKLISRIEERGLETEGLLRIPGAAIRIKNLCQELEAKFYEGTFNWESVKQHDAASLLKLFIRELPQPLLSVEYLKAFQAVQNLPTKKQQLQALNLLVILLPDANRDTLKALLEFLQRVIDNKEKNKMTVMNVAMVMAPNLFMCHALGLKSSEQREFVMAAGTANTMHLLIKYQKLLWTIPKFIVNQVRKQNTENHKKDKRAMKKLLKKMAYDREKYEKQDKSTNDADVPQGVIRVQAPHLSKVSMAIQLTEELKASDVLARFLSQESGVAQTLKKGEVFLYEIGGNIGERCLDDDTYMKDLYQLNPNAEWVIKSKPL
# UniProt Q8NCN5: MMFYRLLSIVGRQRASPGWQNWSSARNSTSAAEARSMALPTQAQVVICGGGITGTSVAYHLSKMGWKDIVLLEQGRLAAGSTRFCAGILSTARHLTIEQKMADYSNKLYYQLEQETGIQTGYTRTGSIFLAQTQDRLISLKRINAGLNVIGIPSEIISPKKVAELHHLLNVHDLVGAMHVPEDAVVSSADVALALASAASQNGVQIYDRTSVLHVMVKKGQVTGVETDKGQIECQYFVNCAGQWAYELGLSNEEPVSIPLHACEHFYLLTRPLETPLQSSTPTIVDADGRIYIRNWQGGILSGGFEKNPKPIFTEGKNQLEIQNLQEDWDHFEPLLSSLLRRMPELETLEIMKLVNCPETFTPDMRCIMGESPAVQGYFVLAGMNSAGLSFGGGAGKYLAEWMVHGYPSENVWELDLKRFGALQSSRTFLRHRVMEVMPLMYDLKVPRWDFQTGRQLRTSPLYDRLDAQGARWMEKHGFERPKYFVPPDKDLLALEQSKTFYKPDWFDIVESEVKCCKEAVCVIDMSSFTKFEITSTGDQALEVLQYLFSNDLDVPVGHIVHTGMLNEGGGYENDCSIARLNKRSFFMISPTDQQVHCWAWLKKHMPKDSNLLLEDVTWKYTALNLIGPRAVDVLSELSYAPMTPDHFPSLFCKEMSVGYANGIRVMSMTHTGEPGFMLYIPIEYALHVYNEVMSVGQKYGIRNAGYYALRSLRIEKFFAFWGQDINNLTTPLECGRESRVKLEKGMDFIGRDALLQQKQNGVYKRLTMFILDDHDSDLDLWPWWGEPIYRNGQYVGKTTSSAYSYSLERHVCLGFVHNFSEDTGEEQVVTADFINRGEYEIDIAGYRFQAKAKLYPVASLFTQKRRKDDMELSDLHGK
# UniProt Q8N653: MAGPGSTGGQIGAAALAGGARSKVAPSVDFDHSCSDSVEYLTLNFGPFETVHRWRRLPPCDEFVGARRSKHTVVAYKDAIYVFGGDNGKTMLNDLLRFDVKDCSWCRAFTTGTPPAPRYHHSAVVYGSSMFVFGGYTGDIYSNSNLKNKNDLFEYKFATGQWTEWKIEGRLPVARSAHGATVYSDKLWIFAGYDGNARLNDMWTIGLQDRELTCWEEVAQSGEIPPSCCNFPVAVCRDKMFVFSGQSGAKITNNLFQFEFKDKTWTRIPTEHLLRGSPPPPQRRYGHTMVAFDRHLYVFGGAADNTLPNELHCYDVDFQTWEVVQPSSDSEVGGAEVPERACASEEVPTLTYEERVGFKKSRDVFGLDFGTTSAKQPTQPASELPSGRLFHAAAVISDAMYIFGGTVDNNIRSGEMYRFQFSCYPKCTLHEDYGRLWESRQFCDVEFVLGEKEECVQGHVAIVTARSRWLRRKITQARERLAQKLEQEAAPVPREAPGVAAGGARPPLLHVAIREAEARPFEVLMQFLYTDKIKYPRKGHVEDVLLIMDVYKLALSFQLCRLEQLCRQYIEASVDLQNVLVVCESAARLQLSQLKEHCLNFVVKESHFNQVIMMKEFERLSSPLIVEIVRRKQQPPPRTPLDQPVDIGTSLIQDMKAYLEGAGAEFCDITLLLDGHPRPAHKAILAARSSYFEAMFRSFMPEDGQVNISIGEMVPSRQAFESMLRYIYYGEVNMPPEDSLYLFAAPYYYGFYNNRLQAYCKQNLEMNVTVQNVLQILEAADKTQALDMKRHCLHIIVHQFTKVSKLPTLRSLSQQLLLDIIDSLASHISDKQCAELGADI
# UniProt Q8NB15: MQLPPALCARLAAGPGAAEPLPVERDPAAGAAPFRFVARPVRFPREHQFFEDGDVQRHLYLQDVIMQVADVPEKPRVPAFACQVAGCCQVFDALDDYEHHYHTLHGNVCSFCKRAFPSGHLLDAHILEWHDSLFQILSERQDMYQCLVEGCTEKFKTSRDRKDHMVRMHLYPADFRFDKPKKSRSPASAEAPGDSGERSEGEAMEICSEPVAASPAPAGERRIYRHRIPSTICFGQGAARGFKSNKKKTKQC
# Compound: Cc1nc(Nc2ncc(C(=O)Nc3c(C)cccc3Cl)s2)cc(N2CCN(CCO)CC2)n1 [dasatinib]
# Assay: log2 fold change of tryptic peptide abundance, ligand vs vehicle (limited proteolysis) (log2 ratio); higher = more trypsin-susceptible (destabilized)
# Settings: ligand concentration: 5 uM; sample: K562 cleared lysate
row,Target,log2 fold change
1,"PHC3 (peptide sequence: HQQIPLHSPPSK, peptide start residue: 308) (UniProt Q8NDX5)",-0.498
2,"PPTC7 (peptide sequence: AVLGGLSQTDPR, peptide start residue: 14) (UniProt Q8NI37)",0.089
3,"SRFBP1 (peptide sequence: QQLQLPLHPSWEASR, peptide start residue: 394) (UniProt Q8NEF9)",0.111
4,"UniProt Q8N7N1 (peptide sequence: SFPWQSLEAK, peptide start residue: 28)",-0.227
5,"ARHGAP18 (peptide sequence: RYGQYTMNQESTTIK, peptide start residue: 40) (UniProt Q8N392)",0.213
6,"PDPR (peptide sequence: HLTIEQK, peptide start residue: 94) (UniProt Q8NCN5)",0.62
7,"LZTR1 (peptide sequence: LEQEAAPVPR, peptide start residue: 485) (UniProt Q8N653)",-0.444
8,"ZNF511 (peptide sequence: SRSPASAEAPGDSGER, peptide start residue: 183) (UniProt Q8NB15)",-0.341

# Reference: the supplement of paper PMC12819154, “High-throughput peptide-centric local stability assay extends protein–ligand identification to membrane proteins, tissues and bacteria” (Nature Structural & Molecular Biology, 2025)
